Not every detail of the peptide structures is certain; ends, links or a residue may be inferred. Square brackets hold non-standard residues; d marks the D form. Peptide text beside a SMILES is read from it. * marks the point of attachment. dLys(Me3) = C[N+](C)(C)CCCC[C@@H](N)C(=O)O; Lys(Me3) = C[N+](C)(C)CCCC[C@H](N)C(=O)O; 2Nal = N[C@@H](Cc1ccc2ccccc2c1)C(=O)O; Boc = CC(C)(C)OC(=O)*
Assays:
[1] = test system: neuromuscular junction; experiment: Mouse inclined screen grip strength test (neuromuscular junction blocking activity); format: in vivo; settings: mice on screen inclined 45°; dose required to inhibit grip strength
Procedure: The first step, in mice, establishes a preliminary estimate of the potency and efficacy of the compounds. The animals were placed on a screen, inclined 45° to the horizontal. Effective doses caused the mice to lose their grip and slide down the inclined screen. The dose in mg/kg of body weight required to inhibit grip strength in 100% of the mice tested in a dosage group is reported.

[2] = test system: neuromuscular junction; experiment: Rabbit paw twitch analysis; format: in vivo
From the text: In a large series of similar relaxants, the rabbit dose is typically 125% of that in mice. The mechanism of action was also confirmed in this test by observing train-of-four and tetanus fade, post-tetanic potentiation of single twitches and administration of the anticholinesterase drug neostigmine which reverses the relaxation. Reversibility, rapid onset and short duration are important factors to the anesthesiologist.
The following is a brief description of the methodologies used in rabbits to describe neuromuscular blocking activity of the subject compounds. A more detailed description of these methods is presented in "Microcomputer Use in Measuring Onset, Duration, and Recovery from Non-Depolarizing Skeletal Muscle Relaxants in Rabbits", P.D. Thut et al., Drug development Research 5:182, 1985.
Male New Zealand white rabbits weighing between 2.5 and 3.4 kg were anesthetized with pentobarbital (30 mg/kg) and placed on their backs upon a 40° C. water filled temperature regulation pad. Following tracheostomy, the lungs were mechanically ventilated at 28 breaths per minute with room air, using an open system delivering 200 ml/stroke. This ventilation maintained pCO2 at 38 […] and pO2 at 85 mmHg. Direct arterial blood pressure was measured from the right common carotid artery. The test compounds were administered through a cannula placed in the marginal ear vein. Each foreleg was taped to a cushioned plate held in a femur clamp attached to the spinal board rack. The left central digit of each paw was connected to a force displacement transducer for measurement of muscle tension. Nerve stimulation was provided by pairs of pin electrodes placed on both sides of the ulnar nerve at the elbow of both forearms. The right ulnar nerve was stimulated at 1 Hz, 1 pps for 0.5 msec duration. The left ulnar nerve was similarly stimulated, every 15 seconds, with addition of interspersed trains-of-four and tetanizing stimuli. […]

COC(=O)[C@H](CCCC[N+](C)(C)C)NC(=O)[C@H](Cc1ccc2ccccc2c1)NC(=O)[C@H](CCCC[N+](C)(C)C)NC(=O)OC(C)(C)C [Compound D] (Boc-[Lys(Me3)]-[2Nal]-[Lys(Me3)]-OMe)
Neuromuscular Junction Blocking Activity (ED90), Mouse [1]: 10.00 mg/kg

CC(=O)O[C@@H]1C[C@@H](C(=O)N[C@@H](Cc2ccccc2)C(=O)N2CCC[C@H]2C(=O)OC2CC[N+](C)(C)CC2)[N+](C)(C)C1 [Compound K]
Neuromuscular Junction Blocking Activity (ED90), Mouse [1]: 16.00 mg/kg

COC(=O)[C@@H](CCCC[N+](C)(C)C)NC(=O)[C@@H](Cc1ccccc1)NC(=O)[C@@H](CCCC[N+](C)(C)C)NC(=O)OC(C)(C)C [Compound B] (Boc-[dLys(Me3)]-[dF]-[dLys(Me3)]-OMe)
ED90 (dose required to depress twitch tension to 10% of control) ([2]; anesthetized male New Zealand white rabbits, i.v. marginal ear vein): 31.26 mg/kg
Duration (time from injection until train-of-four recovered to 75%) ([2]; rabbit, equi-efficacious dose): 22.00 min
T85% onset (time from injection until 85% of maximal drug effect) ([2]; rabbit, equi-efficacious dose): 24.40 s
Neuromuscular Junction Blocking Activity (ED90), Mouse [1]: 16.00 mg/kg

COC(=O)[C@H](CCCC[N+](C)(C)C)NC(=O)[C@H](Cc1ccccc1)NC(=O)[C@H](CCCC[N+](C)(C)C)NC(=O)OC(C)(C)C [Compound I] (Boc-[Lys(Me3)]-Phe-[Lys(Me3)]-OMe)
Neuromuscular Junction Blocking Activity (ED90), Mouse [1]: 10.00 mg/kg
